# Data taken from paper PMC8384837.
# Substitutions are numbered along the chain they refer to. Some of the results follow. For some of these results: At the low end of the ranking, values are background and their order means little.
# Experiments:
# Settings in all cases: yeast three-hybrid, YBZ-1, SC-Leu-His + 0.5 mM 3-AT, 4 days
# [1] = target: T1, PUM1 PUF domain R5-GRF C1007G + Q1011F (Homo sapiens) (UniProt Q14671)
# T1 sequence: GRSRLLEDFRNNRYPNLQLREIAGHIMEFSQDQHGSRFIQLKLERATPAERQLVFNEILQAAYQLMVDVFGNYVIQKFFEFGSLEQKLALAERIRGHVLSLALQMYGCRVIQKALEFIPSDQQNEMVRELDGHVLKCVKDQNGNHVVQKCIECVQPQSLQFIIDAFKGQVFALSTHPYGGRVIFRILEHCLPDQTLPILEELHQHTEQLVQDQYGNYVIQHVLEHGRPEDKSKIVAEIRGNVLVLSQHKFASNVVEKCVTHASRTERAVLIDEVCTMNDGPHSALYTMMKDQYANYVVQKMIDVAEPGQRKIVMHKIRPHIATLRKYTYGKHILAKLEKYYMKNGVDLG
# [2] = target: T2, PUM1 PUF domain R5-GRL C1007G + Q1011L (Homo sapiens) (UniProt Q14671)
# T2 sequence: T1 sequence with F184L
# [3] = target: T3, PUM1 PUF domain R5-GRP C1007G + Q1011P (Homo sapiens) (UniProt Q14671)
# T3 sequence: T1 sequence with F184P
# [4] = target: T4, PUM1 PUF domain R5-GRV C1007G + Q1011V (Homo sapiens) (UniProt Q14671)
# T4 sequence: T1 sequence with F184V
# [5] = target: T5, PUM1 PUF domain R5-GRW C1007G + Q1011W (Homo sapiens) (UniProt Q14671)
# T5 sequence: T1 sequence with F184W
# [6] = target: T6, PUM1 PUF domain R5-GSE C1007G + R1008S + Q1011E (Homo sapiens) (UniProt Q14671)
# T6 sequence: T1 sequence with R181S, F184E
# [7] = target: T7, PUM1 PUF domain R5-GSK C1007G + R1008S + Q1011K (Homo sapiens) (UniProt Q14671)
# T7 sequence: T1 sequence with R181S, F184K
# [8] = target: T8, PUM1 PUF domain R5-GTE C1007G + R1008T + Q1011E (UniProt Q14671)
# T8 sequence: T1 sequence with R181T, F184E
# [9] = target: T9, PUM1 PUF domain R5-GVD C1007G + R1008V + Q1011D (Homo sapiens) (UniProt Q14671)
# T9 sequence: T1 sequence with R181V, F184D
# [10] = target: T10, PUM1 PUF domain R5-GWL C1007G + R1008W + Q1011L (Homo sapiens) (UniProt Q14671)
# T10 sequence: T1 sequence with R181W, F184L
# [11] = target: T11, PUM1 PUF domain R5-GWY C1007G + R1008W + Q1011Y (UniProt Q14671)
# T11 sequence: T1 sequence with R181W, F184Y
# [12] = target: T12, PUM1 PUF domain R5-HLK C1007H + R1008L + Q1011K (UniProt Q14671)
# T12 sequence: T1 sequence with G180H, R181L, F184K
# [13] = target: T13, PUM1 PUF domain R5-IFM C1007I + R1008F + Q1011M (UniProt Q14671)
# T13 sequence: T1 sequence with G180I, R181F, F184M
# [14] = target: T14, PUM1 PUF domain R5-IRP C1007I + Q1011P (UniProt Q14671)
# T14 sequence: T1 sequence with G180I, F184P
# [15] = target: T15, PUM1 PUF domain R5-IYM C1007I + R1008Y + Q1011M (UniProt Q14671)
# T15 sequence: T1 sequence with G180I, R181Y, F184M
# [16] = target: T16, PUM1 PUF domain R5-LFQ C1007L + R1008F (Homo sapiens) (UniProt Q14671)
# T16 sequence: T1 sequence with G180L, R181F, F184Q
# [17] = target: T17, PUM1 PUF domain R5-LFR C1007L + R1008F + Q1011R (Homo sapiens) (UniProt Q14671)
# T17 sequence: T1 sequence with G180L, R181F, F184R
# [18] = target: T18, PUM1 PUF domain R5-LFS C1007L + R1008F + Q1011S (UniProt Q14671)
# T18 sequence: T1 sequence with G180L, R181F, F184S
# [19] = target: T19, PUM1 PUF domain R5-LHC C1007L + R1008H + Q1011C (Homo sapiens) (UniProt Q14671)
# T19 sequence: T1 sequence with G180L, R181H, F184C
# [20] = target: T20, PUM1 PUF domain R5-LLR C1007L + R1008L + Q1011R (UniProt Q14671)
# T20 sequence: T1 sequence with G180L, R181L, F184R
# [21] = target: T21, PUM1 PUF domain R5-LNA C1007L + R1008N + Q1011A (UniProt Q14671)
# T21 sequence: T1 sequence with G180L, R181N, F184A
# [22] = target: T22, PUM1 PUF domain R5-LNS C1007L + R1008N + Q1011S (UniProt Q14671)
# T22 sequence: T1 sequence with G180L, R181N, F184S
# [23] = target: T23, PUM1 PUF domain R5-LNT C1007L + R1008N + Q1011T (UniProt Q14671)
# T23 sequence: T1 sequence with G180L, R181N, F184T
# [24] = target: T24, PUM1 PUF domain R5-LWA C1007L + R1008W + Q1011A (Homo sapiens) (UniProt Q14671)
# T24 sequence: T1 sequence with G180L, R181W, F184A
# [25] = target: T25, PUM1 PUF domain R5-LWG C1007L + R1008W + Q1011G (Homo sapiens) (UniProt Q14671)
# T25 sequence: T1 sequence with G180L, R181W, F184G
# [26] = target: T26, PUM1 PUF domain R5-LYA C1007L + R1008Y + Q1011A (UniProt Q14671)
# T26 sequence: T1 sequence with G180L, R181Y, F184A
# [27] = target: T27, PUM1 PUF domain R5-LYC C1007L + R1008Y + Q1011C (UniProt Q14671)
# T27 sequence: T1 sequence with G180L, R181Y, F184C
# [28] = target: T28, PUM1 PUF domain R5-LYD C1007L + R1008Y + Q1011D (UniProt Q14671)
# T28 sequence: T1 sequence with G180L, R181Y, F184D
# [29] = target: T29, PUM1 PUF domain R5-LYG C1007L + R1008Y + Q1011G (Homo sapiens) (UniProt Q14671)
# T29 sequence: T1 sequence with G180L, R181Y, F184G
# [30] = target: T30, PUM1 PUF domain R5-LYL C1007L + R1008Y + Q1011L (UniProt Q14671)
# T30 sequence: T1 sequence with G180L, R181Y, F184L
# [31] = target: T31, PUM1 PUF domain R5-LYM C1007L + R1008Y + Q1011M (UniProt Q14671)
# T31 sequence: T1 sequence with G180L, R181Y, F184M
# [32] = target: T32, PUM1 PUF domain R5-LYS C1007L + R1008Y + Q1011S (Homo sapiens) (UniProt Q14671)
# T32 sequence: T1 sequence with G180L, R181Y, F184S
# [33] = target: T33, PUM1 PUF domain R5-LYV C1007L + R1008Y + Q1011V (UniProt Q14671)
# T33 sequence: T1 sequence with G180L, R181Y, F184V
# [34] = target: T34, PUM1 PUF domain R5-MKC C1007M + R1008K + Q1011C (Homo sapiens) (UniProt Q14671)
# T34 sequence: T1 sequence with G180M, R181K, F184C
# [35] = target: T35, PUM1 PUF domain R5-MRE C1007M + Q1011E (Homo sapiens) (UniProt Q14671)
# T35 sequence: T1 sequence with G180M, F184E
# [36] = target: T36, PUM1 PUF domain R5-MRV C1007M + Q1011V (Homo sapiens) (UniProt Q14671)
# T36 sequence: T1 sequence with G180M, F184V
# [37] = target: T37, PUM1 PUF domain R5-NAG C1007N + R1008A + Q1011G (UniProt Q14671)
# T37 sequence: T1 sequence with G180N, R181A, F184G
# [38] = target: T38, PUM1 PUF domain R5-NAV C1007N + R1008A + Q1011V (Homo sapiens) (UniProt Q14671)
# T38 sequence: T1 sequence with G180N, R181A, F184V
# [39] = target: T39, PUM1 PUF domain R5-NDG C1007N + R1008D + Q1011G (UniProt Q14671)
# T39 sequence: T1 sequence with G180N, R181D, F184G
# [40] = target: T40, PUM1 PUF domain R5-NDI C1007N + R1008D + Q1011I (UniProt Q14671)
# T40 sequence: T1 sequence with G180N, R181D, F184I
sequence,measurement,setting,value
GGCUAGAACUAGUGGAUCCCCCGGCGCCCGGCGGCUCGAGCCCGGGUAAGUGUCAAUAGUCUGCAUGCCGCCGGGCGCCAUGCCUGCAGGUCGACUCUAGAAAACAUG,binding signal (log2 enrichment (interaction score)),[1],-0.8
same,binding signal (log2 enrichment (interaction score)),[2],0.23
same,binding signal (log2 enrichment (interaction score)),[3],0.05
same,binding signal (log2 enrichment (interaction score)),[4],-0.08
same,binding signal (log2 enrichment (interaction score)),[5],0.49
same,binding signal (log2 enrichment (interaction score)),[6],-2.59
same,binding signal (log2 enrichment (interaction score)),[7],-0.95
same,binding signal (log2 enrichment (interaction score)),[8],< -7.87
same,binding signal (log2 enrichment (interaction score)),[9],0.22
same,binding signal (log2 enrichment (interaction score)),[10],-0.51
same,binding signal (log2 enrichment (interaction score)),[11],-5.01
same,binding signal (log2 enrichment (interaction score)),[12],< -6.06
same,binding signal (log2 enrichment (interaction score)),[13],< -7.98
same,binding signal (log2 enrichment (interaction score)),[14],< -5.49
same,binding signal (log2 enrichment (interaction score)),[15],< -5.47
same,binding signal (log2 enrichment (interaction score)),[16],-1.43
same,binding signal (log2 enrichment (interaction score)),[17],-0.06
same,binding signal (log2 enrichment (interaction score)),[18],-2.91
same,binding signal (log2 enrichment (interaction score)),[19],0.11
same,binding signal (log2 enrichment (interaction score)),[20],-3.69
same,binding signal (log2 enrichment (interaction score)),[21],< -5.36
same,binding signal (log2 enrichment (interaction score)),[22],< -6.66
same,binding signal (log2 enrichment (interaction score)),[23],< -6.07
same,binding signal (log2 enrichment (interaction score)),[24],-0.75
same,binding signal (log2 enrichment (interaction score)),[25],-0.45
same,binding signal (log2 enrichment (interaction score)),[26],-4.93
same,binding signal (log2 enrichment (interaction score)),[27],-2.31
same,binding signal (log2 enrichment (interaction score)),[28],-3.87
same,binding signal (log2 enrichment (interaction score)),[29],-1.45
same,binding signal (log2 enrichment (interaction score)),[30],< -8.41
same,binding signal (log2 enrichment (interaction score)),[31],< -6.92
same,binding signal (log2 enrichment (interaction score)),[32],-1.9
same,binding signal (log2 enrichment (interaction score)),[33],-4.69
same,binding signal (log2 enrichment (interaction score)),[34],-2.81
same,binding signal (log2 enrichment (interaction score)),[35],-0.4
same,binding signal (log2 enrichment (interaction score)),[36],0.39
same,binding signal (log2 enrichment (interaction score)),[37],-4.14
same,binding signal (log2 enrichment (interaction score)),[38],-2.81
same,binding signal (log2 enrichment (interaction score)),[39],< -6.59
same,binding signal (log2 enrichment (interaction score)),[40],-4.28

# Reprinted at random: three records from the list
sequence,measurement,setting,value
GGCUAGAACUAGUGGAUCCCCCGGCGCCCGGCGGCUCGAGCCCGGGUAAGUGUCAAUAGUCUGCAUGCCGCCGGGCGCCAUGCCUGCAGGUCGACUCUAGAAAACAUG,binding signal (log2 enrichment (interaction score)),[31],< -6.92
same,binding signal (log2 enrichment (interaction score)),[7],-0.95
same,binding signal (log2 enrichment (interaction score)),[35],-0.4
